Library screening results

By UniProt entry, the sequences of proteins in these tests, tags left out.
UniProt E9BF75, entry or part of it: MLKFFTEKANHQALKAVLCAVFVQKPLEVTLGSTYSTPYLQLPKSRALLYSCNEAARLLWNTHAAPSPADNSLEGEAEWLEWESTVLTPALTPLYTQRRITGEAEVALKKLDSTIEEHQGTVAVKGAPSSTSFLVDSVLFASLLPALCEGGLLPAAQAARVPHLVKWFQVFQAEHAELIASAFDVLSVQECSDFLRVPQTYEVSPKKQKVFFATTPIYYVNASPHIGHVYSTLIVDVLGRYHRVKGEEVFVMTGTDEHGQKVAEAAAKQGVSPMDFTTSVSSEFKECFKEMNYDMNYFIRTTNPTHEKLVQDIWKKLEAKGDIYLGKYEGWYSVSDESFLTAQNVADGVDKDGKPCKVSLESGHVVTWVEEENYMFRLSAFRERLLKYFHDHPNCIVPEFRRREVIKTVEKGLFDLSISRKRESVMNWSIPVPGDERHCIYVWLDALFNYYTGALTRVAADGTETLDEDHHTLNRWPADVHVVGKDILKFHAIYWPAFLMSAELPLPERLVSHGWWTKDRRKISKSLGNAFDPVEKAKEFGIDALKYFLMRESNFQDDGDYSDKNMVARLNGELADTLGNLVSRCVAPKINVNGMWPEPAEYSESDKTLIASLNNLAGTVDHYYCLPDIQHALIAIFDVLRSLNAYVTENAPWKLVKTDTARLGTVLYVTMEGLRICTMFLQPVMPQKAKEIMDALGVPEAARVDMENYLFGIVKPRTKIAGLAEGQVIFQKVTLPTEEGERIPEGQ

Results are percentages, as filed.
The controls that fix the scale are not given in the record; negative values are as filed.
Compounds were drawn at random from those tested, without regard to their results.

A: 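Methionyl-tRNA synthetase (putative), Leishmania donovani (UniProt E9BF75). Primary screen of methionyl-tRNA synthetase; the read-out is not stated. The test concentration is not given. Values are per cent inhibition. Size under these conditions: about 68,000 compounds, about 24 of them at 50% or above in at least one test.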
B: 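Assay on Mycobacterium tuberculosis, filed only as a heat shock assay from Cornell; the read-out is not stated. The concentration is filed as 10 mM, unlikely as a test dose, so the dose is not known. The record gives no direction; compounds that gave an IC50 in retests scored well above the rest, so higher reads as stronger inhibition. About 69,000 compounds were tested under these conditions; 1.4% (about 930) showed 50% or more at least once.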

- CC(C)C(=O)N1Cc2ccccc2CC2(CCCN2C)C1 (stereo not given) | A: 10.86%; B: 13.73%
- CC(=O)N(CCc1nc(-c2cc(C(N)=O)co2)cs1)C(C)C | A: 6.873%; B: -8.913%
- CC(=O)NCc1ccc(C(=O)N2CCCC2c2cnn(C)c2)o1 (stereo not given) | A: 11.81%; B: 13.2%
- O=C(CCN1CCOC(Cn2cccn2)C1)NC1CCCC1 (stereo not given) | A: 11.11%; B: -16.99%
- Cc1ccc(C(=O)N2CCO[C@H]3[C@@H](OCc4ccccn4)CC[C@@H]32)o1 | A: 19.61%
- CN1C(=O)CC(C(=O)O)C12CCN(c1ccc3c(n1)CCCC3)CC2 (stereo not given) | A: 6.138%; B: 11.42%
- CCOC(=O)Cn1ccc2cc(NC(=O)N3CCSCC3)ccc21 | A: 5.753%; B: 1.86%
- Cc1ccc(CN2CC(C(=O)N3CCCC3)C3(CCOCC3)C2)s1.O=C(O)C(F)(F)F (stereo not given) | B: 11.29%
- Cc1noc(C)c1CN(C)C(=O)C1(NS(C)(=O)=O)CCCCC1 | A: 17.37%; B: 11.3%
- O=C1N(c2cccnc2)CCC12CCCN(Cc1ccoc1)C2 (stereo not given) | A: 14.81%
- COc1cccc(COCC(=O)N2CCCCCC2)c1 | A: 9.29%; B: -9.069%
- Cc1ccc(C)c(-n2ncc(NC(=O)NC3(C)CCOC3)c2C)c1 (stereo not given) | A: 1.229%; B: -13.49%
- c1ccc2c(c1)CC(Cc1cc(N3CCCC3)cnn1)CO2 (stereo not given) | A: 21.53%; B: 22.49%
- Cc1cccc(CN2C[C@@H]3CN(C(=O)c4cnccn4)C[C@@H]3C2=O)c1 | A: 19.26%
- CC(NC(=O)N1CCNC(=O)CC1)c1ccc(C(F)(F)F)cc1 (stereo not given) | A: 19.83%; B: 3.512%
- O=C(O)C(F)(F)F.[H][C@@]12CN(CC)C[C@]1([H])[C@@H](OC)CCN2C(=O)Cc1ccsc1 | B: -7.197%
- O=C(NCc1cccnc1)C1=NOC2(CCN(C(=O)N3CCCC3)C2)C1 (stereo not given) | A: 13.33%
- Cc1cncc(C(=O)N(c2ccc(F)cn2)C2CCOCC2)c1 | A: 5.514%; B: 0.2493%
- [H][C@]12CC[C@]([H])(CN(S(=O)(=O)N(CC)CC)C1)N(Cc1cscn1)C2=O | B: 3.518%
- Cl.OC1(Cn2ccc3ncccc32)CCN(Cc2ccccc2F)CC1 | B: -9.124%
- Cc1ccc(-n2nnc(CC(=O)N3CCSCC3)c2C)cc1 | A: 10.24%; B: 7.914%
- CC(C)Cn1ncc(C(=O)O)c1C1CC1 | A: 14.85%; B: 3.838%
- O=C(O)C(F)(F)F.O=C(O)C(F)(F)F.[H][C@@]12CN(Cc3ccc(OC)cc3)C[C@]1([H])OCCN2CC1CCCO1 (stereo not given in full) | B: 2.354%
- COCCN1CCC1c1cc(NC2CCCC2)nc(C)n1 (stereo not given) | A: 11.11%; B: 17.07%
- O=C([C@H]1CC[C@@H]2[C@@H](CCN2C2CCCC2)O1)N1CCOCC1 | A: 4.945%
- O=C(NC[C@H]1OC[C@@H]2CCN(Cc3ccco3)C[C@@H]21)c1ccnnc1 | A: 4.294%
- Cc1nn(C(C)(C)C)c(=O)n1CC(=O)NC(C)(C)C | A: 9.926%; B: 11.79%
- CN(C)c1ccc(CN2CCC(C(O)Cc3ccccc3)CC2)cn1 (stereo not given) | A: 20.63%; B: -19.83%
- Cc1cc(-c2nn(C)c(Cl)c2CN2CCN(C)C(C(=O)O)C2)no1 (stereo not given) | A: 6.593%; B: 1.951%

3 of the entries, repeated:

{"compound": "Cc1cccc(CN2C[C@@H]3CN(C(=O)c4cnccn4)C[C@@H]3C2=O)c1", "A": 19.26}
{"compound": "COCCN1CCC1c1cc(NC2CCCC2)nc(C)n1", "stereo": "stereo not given", "A": 11.11, "B": 17.07}
{"compound": "O=C(O)C(F)(F)F.[H][C@@]12CN(CC)C[C@]1([H])[C@@H](OC)CCN2C(=O)Cc1ccsc1", "B": -7.197}

From ChEMBL document CHEMBL3988442, “University of Dundee, Small-Polar-MMV Screening Library” (2021).